{"source": "PubChem BioAssay AID1259254 (NCATS, 2017)", "purpose": "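Gene knock-downs that lead to re-replication, shown by excess G2 DNA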 (primary screen)", "cell system": "human HCT116 colorectal cancer cells", "knock-down reagent": "single siRNA against human genes", "timing": "3 days", "detection": "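Imaged Hoechst DNA stain sorts each cell into a cycle phase by DNA amount; per plate, G2 fraction set to 0% for non-targeting and 100% for GMNN siRNA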", "scale": "G2 robust z-score and G2 cells, % of GMNN control: higher = more G2 cells, more excess DNA replication", "active means": "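Active siRNAs have a G2 robust z of 5 or more median absolute deviations over the median, which in these data means about 38% or higher of GMNN control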", "note": "Shown is an unselected part of about 59,000 reagents. Of all reagents, about 1,550 (2.6%) are marked active. 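G2 share is only a proxy for re-replication; each gene was hit by three separate siRNAs, and active genes were retested.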 Entries without a mark were called inactive. The numbers tell different reagents against one gene apart. Further read-outs or replicates are left out here. Not given: the amount of reagent."}
{"target": "ITPKA", "reagent": 1, "G2 robust z-score": 0.85, "G2 cells, % of GMNN control": 8.95}
{"target": "ITPKA", "reagent": 2, "G2 robust z-score": -1.4, "G2 cells, % of GMNN control": -6.9}
{"target": "ITPKA", "reagent": 3, "G2 robust z-score": -0.65, "G2 cells, % of GMNN control": -1.6}
{"target": "TBL1X", "reagent": 1, "G2 robust z-score": -0.657, "G2 cells, % of GMNN control": -1.66}
{"target": "TBL1X", "reagent": 2, "G2 robust z-score": 0.578, "G2 cells, % of GMNN control": 7.03}
{"target": "TBL1X", "reagent": 3, "G2 robust z-score": 1.44, "G2 cells, % of GMNN control": 13.1}
{"target": "KCNIP1", "reagent": 1, "G2 robust z-score": -0.147, "G2 cells, % of GMNN control": 1.93}
{"target": "KCNIP1", "reagent": 2, "G2 robust z-score": 0.443, "G2 cells, % of GMNN control": 6.09}
{"target": "KCNIP1", "reagent": 3, "G2 robust z-score": -0.0379, "G2 cells, % of GMNN control": 2.7}
{"target": "SYF2", "reagent": 1, "G2 robust z-score": -0.118, "G2 cells, % of GMNN control": 2.14}
{"target": "SYF2", "reagent": 2, "G2 robust z-score": -0.135, "G2 cells, % of GMNN control": 2.02}
{"target": "SYF2", "reagent": 3, "G2 robust z-score": 0.15, "G2 cells, % of GMNN control": 4.02}
{"target": "GRIN2D", "reagent": 1, "G2 robust z-score": 0.69, "G2 cells, % of GMNN control": 7.82}
{"target": "GRIN2D", "reagent": 2, "G2 robust z-score": -1.36, "G2 cells, % of GMNN control": -6.63}
{"target": "GRIN2D", "reagent": 3, "G2 robust z-score": 2.64, "G2 cells, % of GMNN control": 21.6}
{"target": "GPR88", "reagent": 1, "G2 robust z-score": -0.184, "G2 cells, % of GMNN control": 1.67}
{"target": "GPR88", "reagent": 2, "G2 robust z-score": -1.29, "G2 cells, % of GMNN control": -6.12}
{"target": "GPR88", "reagent": 3, "G2 robust z-score": 1.55, "G2 cells, % of GMNN control": 13.8}
{"target": "SORCS2", "reagent": 1, "G2 robust z-score": -0.185, "G2 cells, % of GMNN control": 1.67}
{"target": "SORCS2", "reagent": 2, "G2 robust z-score": -0.811, "G2 cells, % of GMNN control": -2.74}
{"target": "SORCS2", "reagent": 3, "G2 robust z-score": 1.43, "G2 cells, % of GMNN control": 13}
{"target": "ZNF747", "reagent": 1, "G2 robust z-score": -1.04, "G2 cells, % of GMNN control": -4.35}
{"target": "ZNF747", "reagent": 2, "G2 robust z-score": -0.593, "G2 cells, % of GMNN control": -1.2}
{"target": "ZNF747", "reagent": 3, "G2 robust z-score": -1.66, "G2 cells, % of GMNN control": -8.74}

4 entries from above in another layout.
target	reagent	G2 robust z-score	G2 cells, % of GMNN control
ITPKA	3	-0.65	-1.6
TBL1X	1	-0.657	-1.66
TBL1X	2	0.578	7.03
TBL1X	3	1.44	13.1
